Some of the results follow.
compound: CNc1nc(-c2ccc3c(N)n[nH]c3c2)cc(N2C[C@@H](C(=O)NC3CCCCC3)CC[C@H]2C)n1; experiment: log2 fold change, soluble protein after heating vs DMSO (PISA); higher = thermal stabilisation; K562 cells, 10 uM, 30 min; active = over 0.2 and 3.5 SD of the protein, either way, in both replicates (recomputed)
Summary of the method: (§1)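 Quantification of soluble protein used TMTpro 16plex LC-MS/MS, with channel sums equalised. Samples were the supernatant after 21,000xg for 90 min of pooled aliquots from K562 cells (2×10^6 cells/mL) treated with 10 μM compound for 30 min, heated for 3 min over 48°C-58°C, and extracted in PBS with 0.5% NP-40 at 4°C. Values, from duplicates, describe thermal stability against control samples on a log2 fold-change scale.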

By UniProt entry, the sequences of proteins in these tests, tags left out. Where a name states a change or a piece, a line headed by the entry shows the natural chain unless it says otherwise.
UniProt Q8TBQ9: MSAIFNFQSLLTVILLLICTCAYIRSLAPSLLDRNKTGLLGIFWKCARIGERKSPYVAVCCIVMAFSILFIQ
UniProt Q9P0S9: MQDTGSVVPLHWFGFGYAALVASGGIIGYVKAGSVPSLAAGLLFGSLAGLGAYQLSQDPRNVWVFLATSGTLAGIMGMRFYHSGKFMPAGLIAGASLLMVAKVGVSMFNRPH
UniProt Q9Y4G6: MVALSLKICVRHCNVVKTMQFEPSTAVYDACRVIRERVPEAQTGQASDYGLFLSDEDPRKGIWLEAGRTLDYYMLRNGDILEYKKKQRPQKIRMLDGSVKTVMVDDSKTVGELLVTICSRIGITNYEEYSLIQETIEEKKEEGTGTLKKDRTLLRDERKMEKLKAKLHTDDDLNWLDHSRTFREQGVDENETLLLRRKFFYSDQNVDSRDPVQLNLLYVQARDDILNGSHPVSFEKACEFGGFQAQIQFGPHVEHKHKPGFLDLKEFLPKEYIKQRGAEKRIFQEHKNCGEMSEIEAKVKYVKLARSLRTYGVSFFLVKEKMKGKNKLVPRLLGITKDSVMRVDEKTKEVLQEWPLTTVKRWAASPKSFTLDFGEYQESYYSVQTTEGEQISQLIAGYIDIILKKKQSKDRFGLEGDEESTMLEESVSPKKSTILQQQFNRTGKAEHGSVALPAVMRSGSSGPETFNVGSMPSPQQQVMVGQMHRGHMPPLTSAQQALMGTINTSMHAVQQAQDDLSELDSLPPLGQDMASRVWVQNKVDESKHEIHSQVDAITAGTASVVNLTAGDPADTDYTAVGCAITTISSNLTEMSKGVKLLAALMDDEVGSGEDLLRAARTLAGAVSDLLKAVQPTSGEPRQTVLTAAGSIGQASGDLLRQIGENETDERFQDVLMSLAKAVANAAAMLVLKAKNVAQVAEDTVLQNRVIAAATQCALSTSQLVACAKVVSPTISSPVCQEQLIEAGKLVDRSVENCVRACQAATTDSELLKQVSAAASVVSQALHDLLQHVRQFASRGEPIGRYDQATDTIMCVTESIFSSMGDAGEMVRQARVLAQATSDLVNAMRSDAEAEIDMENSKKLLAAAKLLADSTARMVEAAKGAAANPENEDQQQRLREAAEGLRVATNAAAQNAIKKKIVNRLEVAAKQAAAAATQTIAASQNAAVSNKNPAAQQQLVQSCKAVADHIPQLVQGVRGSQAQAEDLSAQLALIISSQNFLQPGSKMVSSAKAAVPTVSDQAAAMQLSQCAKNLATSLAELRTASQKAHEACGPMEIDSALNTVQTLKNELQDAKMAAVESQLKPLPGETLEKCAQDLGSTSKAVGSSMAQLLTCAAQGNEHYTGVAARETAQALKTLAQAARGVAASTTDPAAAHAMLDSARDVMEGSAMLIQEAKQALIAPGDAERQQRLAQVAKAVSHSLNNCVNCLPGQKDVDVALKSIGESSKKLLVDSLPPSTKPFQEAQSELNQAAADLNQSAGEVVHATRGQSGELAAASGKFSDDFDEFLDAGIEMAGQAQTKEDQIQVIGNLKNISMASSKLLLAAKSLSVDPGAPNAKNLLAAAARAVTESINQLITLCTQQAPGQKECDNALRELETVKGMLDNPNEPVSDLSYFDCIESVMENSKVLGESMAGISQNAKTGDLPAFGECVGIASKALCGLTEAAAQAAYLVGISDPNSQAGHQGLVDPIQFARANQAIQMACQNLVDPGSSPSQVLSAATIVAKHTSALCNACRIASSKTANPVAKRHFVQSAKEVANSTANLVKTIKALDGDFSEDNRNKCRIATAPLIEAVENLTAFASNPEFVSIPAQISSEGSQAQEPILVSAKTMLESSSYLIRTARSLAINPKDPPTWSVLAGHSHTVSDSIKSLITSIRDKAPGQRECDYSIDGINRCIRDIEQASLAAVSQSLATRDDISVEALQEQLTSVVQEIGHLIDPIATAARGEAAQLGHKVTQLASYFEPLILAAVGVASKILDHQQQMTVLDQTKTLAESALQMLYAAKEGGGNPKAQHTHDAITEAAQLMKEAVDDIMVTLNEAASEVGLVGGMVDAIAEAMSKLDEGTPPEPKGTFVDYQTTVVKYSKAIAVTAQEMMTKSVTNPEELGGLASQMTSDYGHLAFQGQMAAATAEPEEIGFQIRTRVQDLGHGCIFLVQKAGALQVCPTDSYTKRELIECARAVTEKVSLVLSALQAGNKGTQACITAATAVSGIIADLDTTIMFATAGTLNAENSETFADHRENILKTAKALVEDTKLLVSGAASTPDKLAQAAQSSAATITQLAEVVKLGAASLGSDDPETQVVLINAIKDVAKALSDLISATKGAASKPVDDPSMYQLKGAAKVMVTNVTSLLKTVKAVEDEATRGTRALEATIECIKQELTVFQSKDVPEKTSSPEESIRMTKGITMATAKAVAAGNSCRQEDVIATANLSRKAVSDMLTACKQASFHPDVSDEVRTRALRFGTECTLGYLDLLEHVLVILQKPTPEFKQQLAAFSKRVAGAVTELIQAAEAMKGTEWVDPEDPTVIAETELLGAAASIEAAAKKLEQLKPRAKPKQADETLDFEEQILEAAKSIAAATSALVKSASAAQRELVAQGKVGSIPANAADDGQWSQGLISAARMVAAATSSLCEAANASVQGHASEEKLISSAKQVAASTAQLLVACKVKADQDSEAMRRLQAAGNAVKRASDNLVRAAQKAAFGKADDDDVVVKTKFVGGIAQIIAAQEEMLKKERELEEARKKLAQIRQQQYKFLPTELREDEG
UniProt Q96B77: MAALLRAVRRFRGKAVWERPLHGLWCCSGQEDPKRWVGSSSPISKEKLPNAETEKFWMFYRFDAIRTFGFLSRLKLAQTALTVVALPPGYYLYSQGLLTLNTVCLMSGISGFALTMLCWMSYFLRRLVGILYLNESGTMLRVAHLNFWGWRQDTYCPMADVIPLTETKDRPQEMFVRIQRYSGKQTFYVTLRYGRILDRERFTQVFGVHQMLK
UniProt Q6PI78: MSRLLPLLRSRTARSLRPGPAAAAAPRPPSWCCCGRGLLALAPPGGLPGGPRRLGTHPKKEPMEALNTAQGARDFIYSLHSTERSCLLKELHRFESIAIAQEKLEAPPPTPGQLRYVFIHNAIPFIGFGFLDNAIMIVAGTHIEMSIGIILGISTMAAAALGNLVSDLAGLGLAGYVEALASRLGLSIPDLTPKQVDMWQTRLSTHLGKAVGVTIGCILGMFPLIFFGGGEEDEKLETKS
UniProt P57088: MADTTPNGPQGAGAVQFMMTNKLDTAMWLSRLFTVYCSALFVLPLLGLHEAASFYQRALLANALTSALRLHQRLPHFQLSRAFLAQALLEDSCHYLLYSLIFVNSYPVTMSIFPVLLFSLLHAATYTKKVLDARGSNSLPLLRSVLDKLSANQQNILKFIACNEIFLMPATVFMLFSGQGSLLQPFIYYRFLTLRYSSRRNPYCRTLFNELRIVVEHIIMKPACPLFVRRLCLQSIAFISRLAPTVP
UniProt Q9NX00: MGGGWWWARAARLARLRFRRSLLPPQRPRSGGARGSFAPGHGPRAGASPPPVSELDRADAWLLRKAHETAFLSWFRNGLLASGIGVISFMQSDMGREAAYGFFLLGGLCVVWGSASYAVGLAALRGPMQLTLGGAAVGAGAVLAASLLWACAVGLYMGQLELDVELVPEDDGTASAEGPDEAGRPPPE
UniProt Q9HD45: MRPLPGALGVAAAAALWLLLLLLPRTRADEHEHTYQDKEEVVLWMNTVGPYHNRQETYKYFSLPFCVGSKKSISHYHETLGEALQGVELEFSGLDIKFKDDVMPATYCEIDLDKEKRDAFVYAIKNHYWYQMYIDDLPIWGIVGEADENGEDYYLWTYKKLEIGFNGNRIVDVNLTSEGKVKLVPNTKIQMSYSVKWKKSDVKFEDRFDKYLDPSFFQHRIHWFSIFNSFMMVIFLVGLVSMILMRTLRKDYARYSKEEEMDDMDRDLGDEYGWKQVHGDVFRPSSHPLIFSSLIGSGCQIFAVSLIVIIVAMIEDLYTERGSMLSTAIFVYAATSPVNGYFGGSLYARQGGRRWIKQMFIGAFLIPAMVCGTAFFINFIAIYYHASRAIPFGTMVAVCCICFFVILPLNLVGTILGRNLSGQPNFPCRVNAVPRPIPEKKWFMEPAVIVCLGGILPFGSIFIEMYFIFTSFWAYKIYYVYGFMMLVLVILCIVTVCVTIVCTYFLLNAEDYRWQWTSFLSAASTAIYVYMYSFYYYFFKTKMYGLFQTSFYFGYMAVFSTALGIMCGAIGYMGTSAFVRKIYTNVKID
UniProt P42167: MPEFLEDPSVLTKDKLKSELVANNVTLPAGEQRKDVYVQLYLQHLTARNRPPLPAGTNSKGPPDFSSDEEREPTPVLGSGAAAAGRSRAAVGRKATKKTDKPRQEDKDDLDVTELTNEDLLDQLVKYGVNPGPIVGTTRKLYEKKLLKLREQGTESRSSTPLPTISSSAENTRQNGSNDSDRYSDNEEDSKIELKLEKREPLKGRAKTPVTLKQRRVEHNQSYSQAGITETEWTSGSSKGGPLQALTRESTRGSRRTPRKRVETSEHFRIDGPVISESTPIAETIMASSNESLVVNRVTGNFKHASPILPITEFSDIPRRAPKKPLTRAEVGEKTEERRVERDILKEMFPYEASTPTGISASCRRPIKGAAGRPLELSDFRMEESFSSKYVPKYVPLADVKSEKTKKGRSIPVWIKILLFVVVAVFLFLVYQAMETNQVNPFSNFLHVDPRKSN
UniProt Q9H7F4: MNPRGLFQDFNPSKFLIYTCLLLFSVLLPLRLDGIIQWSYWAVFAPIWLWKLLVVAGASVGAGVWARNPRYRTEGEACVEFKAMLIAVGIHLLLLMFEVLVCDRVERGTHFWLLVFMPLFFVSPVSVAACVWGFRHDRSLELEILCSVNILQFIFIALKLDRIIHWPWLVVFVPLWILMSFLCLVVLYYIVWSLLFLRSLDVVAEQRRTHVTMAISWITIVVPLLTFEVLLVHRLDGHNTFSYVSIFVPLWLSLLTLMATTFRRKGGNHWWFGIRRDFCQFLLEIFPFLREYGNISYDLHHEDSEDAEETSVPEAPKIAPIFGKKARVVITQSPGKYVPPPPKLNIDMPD
UniProt P42166: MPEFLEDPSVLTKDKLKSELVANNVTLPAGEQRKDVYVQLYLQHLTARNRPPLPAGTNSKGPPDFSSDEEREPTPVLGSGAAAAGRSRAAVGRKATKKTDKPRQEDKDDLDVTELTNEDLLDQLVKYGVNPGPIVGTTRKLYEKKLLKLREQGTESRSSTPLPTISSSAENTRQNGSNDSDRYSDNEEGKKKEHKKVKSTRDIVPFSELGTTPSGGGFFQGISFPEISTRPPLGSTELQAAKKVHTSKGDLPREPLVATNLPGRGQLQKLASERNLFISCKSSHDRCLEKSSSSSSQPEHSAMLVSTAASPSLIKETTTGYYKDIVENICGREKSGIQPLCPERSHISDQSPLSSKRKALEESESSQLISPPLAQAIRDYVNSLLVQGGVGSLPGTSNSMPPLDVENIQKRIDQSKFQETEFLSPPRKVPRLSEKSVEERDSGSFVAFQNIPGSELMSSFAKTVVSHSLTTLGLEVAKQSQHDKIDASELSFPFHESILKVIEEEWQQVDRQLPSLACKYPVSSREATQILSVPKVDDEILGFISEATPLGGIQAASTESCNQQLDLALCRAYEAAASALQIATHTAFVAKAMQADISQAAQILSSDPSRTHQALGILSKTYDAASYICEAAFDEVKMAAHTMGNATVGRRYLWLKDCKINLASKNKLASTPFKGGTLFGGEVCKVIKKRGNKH
UniProt Q96SK2: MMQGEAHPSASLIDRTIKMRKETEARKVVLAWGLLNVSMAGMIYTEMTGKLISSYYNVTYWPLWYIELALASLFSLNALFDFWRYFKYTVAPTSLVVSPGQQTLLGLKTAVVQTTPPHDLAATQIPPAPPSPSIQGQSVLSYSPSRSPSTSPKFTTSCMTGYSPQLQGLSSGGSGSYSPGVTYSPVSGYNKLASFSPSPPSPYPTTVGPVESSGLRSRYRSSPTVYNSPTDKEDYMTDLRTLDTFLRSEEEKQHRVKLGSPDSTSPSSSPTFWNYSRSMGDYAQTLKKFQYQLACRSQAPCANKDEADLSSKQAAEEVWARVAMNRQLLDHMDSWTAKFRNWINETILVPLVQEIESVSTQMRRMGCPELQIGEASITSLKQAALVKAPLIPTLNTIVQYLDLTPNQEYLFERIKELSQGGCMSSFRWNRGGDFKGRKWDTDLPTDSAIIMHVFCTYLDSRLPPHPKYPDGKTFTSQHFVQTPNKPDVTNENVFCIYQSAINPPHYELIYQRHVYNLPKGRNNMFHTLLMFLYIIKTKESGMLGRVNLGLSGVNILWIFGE
UniProt Q96A57: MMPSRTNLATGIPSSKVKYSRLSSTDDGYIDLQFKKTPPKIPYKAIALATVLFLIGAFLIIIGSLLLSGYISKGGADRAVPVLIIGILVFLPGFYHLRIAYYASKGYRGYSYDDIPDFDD
UniProt P17152: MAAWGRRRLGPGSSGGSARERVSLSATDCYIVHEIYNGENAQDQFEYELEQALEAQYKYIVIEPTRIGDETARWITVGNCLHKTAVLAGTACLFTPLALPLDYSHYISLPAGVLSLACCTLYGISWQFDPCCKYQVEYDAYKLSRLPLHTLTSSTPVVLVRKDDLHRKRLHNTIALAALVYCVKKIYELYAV

log2 fold change, inactive:
TMEM245 (UniProt Q9H330) -0.063
TMEM167A (UniProt Q8TBQ9) -0.117
TMOD2 (UniProt Q9NZR1) 0.04
TMED4 (UniProt Q7Z7H5) -0.009
TMEM14C (UniProt Q9P0S9) -0.029
TLN2 (UniProt Q9Y4G6) 0.078
TMEM109 (UniProt Q9BVC6) 0.014
TM2D3 (UniProt Q9BRN9) 0.078
TMEM186 (UniProt Q96B77) 0.016
TMEM141 (UniProt Q96I45) -0.107
TMEM65 (UniProt Q6PI78) 0.063
TMEM87A (UniProt Q8NBN3) -0.031
TMEM33 (UniProt P57088) -0.005
TLN1 (UniProt Q9Y490) 0.021
TNFRSF10B (UniProt O14763) -0.014
TMEM160 (UniProt Q9NX00) 0.145
TM9SF3 (UniProt Q9HD45) 0.044
TMPO isoform 2 (UniProt P42167) -0.029
TMOD3 (UniProt Q9NYL9) 0.042
TMEM222 (UniProt Q9H0R3) 0.014
TMEM185B (UniProt Q9H7F4) -0.087
TMA16 (UniProt Q96EY4) 0.092
TMEM30A (UniProt Q9NV96) -0.005
TMEM68 (UniProt Q96MH6) -0.014
TMCO1 (UniProt Q9UM00) -0.03
TMED2 (UniProt Q15363) -0.011
TMX4 (UniProt Q9H1E5) -0.072
TMEM168 (UniProt Q9H0V1) -0.048
TMPO (UniProt P42166) -0.081
TMEM259 (UniProt Q4ZIN3) -0.057
TMSB10 (UniProt P63313) -0.038
TMEM248 (UniProt Q9NWD8) -0.025
TMED3 (UniProt Q9Y3Q3) -0.023
TMEM209 (UniProt Q96SK2) -0.026
TMEM230 isoform 2 (UniProt Q96A57) -0.046
TMED1 (UniProt Q13445) -0.006
TMPO (UniProt P42167) -0.019
TMEM62 (UniProt Q0P6H9) 0.015
TMEM11 (UniProt P17152) -0.058

compound: COC(=O)N[C@@H](C)CNc1nccc(-c2cn(C(C)C)nc2-c2cc(Cl)cc(NS(C)(=O)=O)c2F)n1 [encorafenib]; experiment: as above
Summary of the method: as §1

log2 fold change, inactive:
TMEM245 (UniProt Q9H330) -0.023
TMEM167A (UniProt Q8TBQ9) 0
TMOD2 (UniProt Q9NZR1) -0.009
TMED4 (UniProt Q7Z7H5) -0.022
TMEM14C (UniProt Q9P0S9) -0.023
TLN2 (UniProt Q9Y4G6) 0.128
TMEM109 (UniProt Q9BVC6) -0.085
TM2D3 (UniProt Q9BRN9) 0.041
TMEM186 (UniProt Q96B77) -0.103
TMEM141 (UniProt Q96I45) 0
TMEM65 (UniProt Q6PI78) 0.072
TMEM87A (UniProt Q8NBN3) -0.008
TMEM33 (UniProt P57088) 0.03
TLN1 (UniProt Q9Y490) 0.057
TNFRSF10B (UniProt O14763) 0.026
TMEM160 (UniProt Q9NX00) -0.012
TM9SF3 (UniProt Q9HD45) -0.006
TMPO isoform 2 (UniProt P42167) 0.005
TMOD3 (UniProt Q9NYL9) 0.058
TMEM222 (UniProt Q9H0R3) 0.015
TMEM185B (UniProt Q9H7F4) 0.115
TMA16 (UniProt Q96EY4) 0.144
TMEM30A (UniProt Q9NV96) -0.007
TMEM68 (UniProt Q96MH6) 0.004
TMCO1 (UniProt Q9UM00) 0
TMED2 (UniProt Q15363) -0.001
TMX4 (UniProt Q9H1E5) -0.041
TMEM168 (UniProt Q9H0V1) -0.048
TMPO (UniProt P42166) 0.021
TMEM259 (UniProt Q4ZIN3) -0.077
TMSB10 (UniProt P63313) -0.154
TMEM248 (UniProt Q9NWD8) 0
TMED3 (UniProt Q9Y3Q3) 0.035
TMEM209 (UniProt Q96SK2) 0.025
TMEM230 isoform 2 (UniProt Q96A57) -0.055
TMED1 (UniProt Q13445) 0.022
TMPO (UniProt P42167) 0.02
TMEM62 (UniProt Q0P6H9) 0.047
TMEM11 (UniProt P17152) 0.062
